Measured values from patent publication US20220348647A1.
Results are given in words; binding and its absence hold for the method and conditions named. Some binding calls cover weakened binding; strength is not graded here.

T1: cyno CCL17 (Macaca fascicularis (cyno))
T1 sequence: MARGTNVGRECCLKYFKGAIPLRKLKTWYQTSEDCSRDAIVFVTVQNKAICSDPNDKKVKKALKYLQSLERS

B1: C17F319 variant W→T at HCDR3 position 100a (Kabat) (Fab, V domains shown)
VH: EVQLVQSGAEVKKPGESLKISCKGSGYSFTSYWIGWVRQMPGKGLEWMGIIDPSDSDTRYSPSFQGQVTISADKSISTAYLQWSSLKASDTAMYYCARVGPADVTDSFDYWGQGTLVTVSS
VL: DIVMTQSPDSLAVSLGERATINCKSSQSVLLSPWNSNQLAWYQQKPGQPPKLLIYGASTRESGVPDRFSGSGSGTDFTLTISSLQAEDVAVYYCQQYYLIPSTFGQGTKVEIK
B2: C17F319 variant W→R at HCDR3 position 100a (Kabat) (Fab, V domains shown)
VH: EVQLVQSGAEVKKPGESLKISCKGSGYSFTSYWIGWVRQMPGKGLEWMGIIDPSDSDTRYSPSFQGQVTISADKSISTAYLQWSSLKASDTAMYYCARVGPADVRDSFDYWGQGTLVTVSS
VL: DIVMTQSPDSLAVSLGERATINCKSSQSVLLSPWNSNQLAWYQQKPGQPPKLLIYGASTRESGVPDRFSGSGSGTDFTLTISSLQAEDVAVYYCQQYYLIPSTFGQGTKVEIK

Molecular target: T1, cyno CCL17 (Macaca fascicularis (cyno))
Test: ranking ELISA of Fab variants with bt-cyno CCL17

| Binder | binding |
| --- | --- |
| B1 | binds |
| B2 | binds |
